Measurements reported in PubChem BioAssay AID1224830 (NIAID, 2016).
Here is one part, drawn at random, of about 18,000 reagents tested. In the full data, about 2,900 (16%) were called active. 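Calls are made per well; low scores hint the gene aids the LPS response, high scores that it dampens it.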 Unmarked entries are inactive. Repeated entries: four replicate wells of each siRNA pool. No sequences are given here.

Purpose: 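Regulators of TLR4 signalling towards TNF-alpha in macrophage-like cells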 (primary screen)
System: human THP-1 monocytic leukaemia cells, TNF dual-luciferase reporter clone, PMA-differentiated to macrophage-like cells
Knock-down reagent: siRNA pool against human genes, 50 nM
Timing: LPS for 4 h, given about 3 days after siRNA transfection
Challenge: bacterial LPS (TLR4 ligand), 10 ng/ml
Measurement: 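TNF firefly reporter luminescence divided by renilla, normalised to the plate median, then turned into a robust z-score for each replicate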
Direction: TNF reporter robust z-score: higher = stronger TNF reporter response to LPS
Active means: 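Each well counts as active if its z-score is over 2.8 or under -1.5; controls are left without a call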

target gene,TNF reporter robust z-score
REG3A (GeneID 5068),-0.84
REG3A (GeneID 5068),-0.47
REG3A (GeneID 5068),-0.85
REG3A (GeneID 5068),-0.34
SFTA2 (GeneID 389376),-0.85
SFTA2 (GeneID 389376),-0.54
SFTA2 (GeneID 389376),-0.45
SFTA2 (GeneID 389376),-0.61
USB1 (GeneID 79650),0.25
USB1 (GeneID 79650),0.46
USB1 (GeneID 79650),1.38
USB1 (GeneID 79650),0.52
RYR3 (GeneID 6263),0.59
RYR3 (GeneID 6263),1.07
RYR3 (GeneID 6263),-0.21
RYR3 (GeneID 6263),1.03
COL2A1 (GeneID 1280),0.3
COL2A1 (GeneID 1280),0.45
COL2A1 (GeneID 1280),0.97
MYH10 (GeneID 4628),1.05
MYH10 (GeneID 4628),0.87
MYH10 (GeneID 4628),0.89
MYH10 (GeneID 4628),1.55
TMA7 (GeneID 51372),0.42
TMA7 (GeneID 51372),-0.84
TMA7 (GeneID 51372),-0.48
TMA7 (GeneID 51372),-0.57
NPHS2 (GeneID 7827),-0.16
NPHS2 (GeneID 7827),1.87
NPHS2 (GeneID 7827),1.6
NPHS2 (GeneID 7827),1.75
FBXO48 (GeneID 554251),-0.55
FBXO48 (GeneID 554251),-0.26
FBXO48 (GeneID 554251),-1.7 (active)
FBXO48 (GeneID 554251),-0.57
CRYZL1 (GeneID 9946),-0.14
CRYZL1 (GeneID 9946),1.06
CRYZL1 (GeneID 9946),0.31
CRYZL1 (GeneID 9946),0.75
GAL3ST3 (GeneID 89792),-0.79
GAL3ST3 (GeneID 89792),-0.5
GAL3ST3 (GeneID 89792),-0.1
GAL3ST3 (GeneID 89792),0.11
FAN1 (GeneID 22909),-0.88
FAN1 (GeneID 22909),-0.59
FAN1 (GeneID 22909),-0.57
FAN1 (GeneID 22909),-0.32
PLIN1 (GeneID 5346),0.83
PLIN1 (GeneID 5346),-0.09
PLIN1 (GeneID 5346),0.06
PLIN1 (GeneID 5346),-0.15
KRTAP6-1 (GeneID 337966),-0.82
KRTAP6-1 (GeneID 337966),0.13
KRTAP6-1 (GeneID 337966),-0.21
KRTAP6-1 (GeneID 337966),-0.08
RAB24 (GeneID 53917),-1.36
RAB24 (GeneID 53917),0.21
RAB24 (GeneID 53917),-0.18
RAB24 (GeneID 53917),-0.26
MASP1 (GeneID 5648),-0.29
MASP1 (GeneID 5648),-0.49
MASP1 (GeneID 5648),-1.18
MASP1 (GeneID 5648),-0.03
USP15 (GeneID 9958),-0.97
USP15 (GeneID 9958),0.12
USP15 (GeneID 9958),0.11
USP15 (GeneID 9958),-0.27
IER3 (GeneID 8870),-0.32
IER3 (GeneID 8870),0.23
IER3 (GeneID 8870),-1.75 (active)
IER3 (GeneID 8870),-1.21
TINAGL1 (GeneID 64129),0.33
TINAGL1 (GeneID 64129),1.95
TINAGL1 (GeneID 64129),6.28 (active)
TINAGL1 (GeneID 64129),-0.74
GSTM1 (GeneID 2944),1.05
GSTM1 (GeneID 2944),0.63
GSTM1 (GeneID 2944),0.59
GSTM1 (GeneID 2944),0.41
CTR9 (GeneID 9646),-0.71
CTR9 (GeneID 9646),-1.01
CTR9 (GeneID 9646),-0.28
CTR9 (GeneID 9646),-0.6
ARPC3 (GeneID 10094),0.07
ARPC3 (GeneID 10094),0.67
ARPC3 (GeneID 10094),-0.45
ARPC3 (GeneID 10094),-0.39
RAB2A (GeneID 5862),-0.87
RAB2A (GeneID 5862),-0.74
RAB2A (GeneID 5862),-0.9
RAB2A (GeneID 5862),-0.88
ADPRS (GeneID 54936),-1.19
ADPRS (GeneID 54936),-1.17
ADPRS (GeneID 54936),-0.49
ADPRS (GeneID 54936),-0.28
DACT1 (GeneID 51339),1.13
DACT1 (GeneID 51339),1.68
DACT1 (GeneID 51339),0.97
DACT1 (GeneID 51339),0.64
GATA4 (GeneID 2626),-1.1
GATA4 (GeneID 2626),-0.27
GATA4 (GeneID 2626),-0.08
GATA4 (GeneID 2626),0.38
SLC12A3 (GeneID 6559),0.04
SLC12A3 (GeneID 6559),0.23
SLC12A3 (GeneID 6559),-0.16
SLC12A3 (GeneID 6559),0.68
RFPL4A (GeneID 342931),-0.9
RFPL4A (GeneID 342931),0.62
RFPL4A (GeneID 342931),-0.7
RFPL4A (GeneID 342931),0.48

Records above whose gene name starts with F or f:
target gene,TNF reporter robust z-score
FBXO48 (GeneID 554251),-0.55
FBXO48 (GeneID 554251),-0.26
FBXO48 (GeneID 554251),-1.7 (active)
FBXO48 (GeneID 554251),-0.57
FAN1 (GeneID 22909),-0.88
FAN1 (GeneID 22909),-0.59
FAN1 (GeneID 22909),-0.57
FAN1 (GeneID 22909),-0.32
